Experimental data taken from article PMC5643311.
Numbering of substitutions follows the chain as printed. Results are given in words; binding and its absence hold for the method and conditions named. In cells and extracts the contact can be indirect. Some binding calls cover weakened binding; strength is not graded here. For some of these results: Sequences can lack the tags named with a protein.

Sequences of proteins named here, by UniProt entry; tags and fusion partners are left off.
UniProt Q9UBN7: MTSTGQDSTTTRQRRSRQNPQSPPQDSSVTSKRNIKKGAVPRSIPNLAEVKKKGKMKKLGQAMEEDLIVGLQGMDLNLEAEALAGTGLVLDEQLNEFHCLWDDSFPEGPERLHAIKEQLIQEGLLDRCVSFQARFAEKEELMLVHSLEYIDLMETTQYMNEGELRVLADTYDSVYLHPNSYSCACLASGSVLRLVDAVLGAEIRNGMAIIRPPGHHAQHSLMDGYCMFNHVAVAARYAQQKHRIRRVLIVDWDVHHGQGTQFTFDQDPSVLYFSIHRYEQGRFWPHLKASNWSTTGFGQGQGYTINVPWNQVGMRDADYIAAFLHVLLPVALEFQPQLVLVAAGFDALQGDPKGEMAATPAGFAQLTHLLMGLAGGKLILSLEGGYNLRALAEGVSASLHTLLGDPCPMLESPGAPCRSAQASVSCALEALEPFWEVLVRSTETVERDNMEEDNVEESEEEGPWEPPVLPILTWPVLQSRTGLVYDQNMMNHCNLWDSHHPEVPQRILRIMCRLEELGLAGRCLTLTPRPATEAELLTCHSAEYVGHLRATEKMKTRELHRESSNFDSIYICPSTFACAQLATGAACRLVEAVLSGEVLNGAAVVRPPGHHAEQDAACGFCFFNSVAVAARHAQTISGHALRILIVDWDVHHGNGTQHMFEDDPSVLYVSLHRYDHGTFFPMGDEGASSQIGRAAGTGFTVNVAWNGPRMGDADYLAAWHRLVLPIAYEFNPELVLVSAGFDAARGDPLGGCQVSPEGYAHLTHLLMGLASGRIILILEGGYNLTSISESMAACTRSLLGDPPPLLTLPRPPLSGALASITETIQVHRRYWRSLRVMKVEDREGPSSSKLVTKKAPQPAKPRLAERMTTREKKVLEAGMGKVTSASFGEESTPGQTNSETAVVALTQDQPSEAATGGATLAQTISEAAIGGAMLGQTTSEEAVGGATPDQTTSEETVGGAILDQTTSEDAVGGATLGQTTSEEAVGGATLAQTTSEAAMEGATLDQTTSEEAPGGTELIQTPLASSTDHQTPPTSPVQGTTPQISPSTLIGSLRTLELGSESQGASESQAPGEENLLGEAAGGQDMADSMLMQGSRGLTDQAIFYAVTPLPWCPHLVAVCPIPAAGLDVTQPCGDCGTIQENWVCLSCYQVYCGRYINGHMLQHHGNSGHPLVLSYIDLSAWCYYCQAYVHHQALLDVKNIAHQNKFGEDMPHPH

Legend:
[1] = target: T1, migration and invasion inhibitory protein (MIIP), endogenous (human (endogenous in HCT116, SW480)) (UniProt Q5JXC2); test: co-IP; two-step: HCT116 cells with EGF (100 ng/ml, 30 min); immunoprecipitation with anti-Flag (Flag-RelA), elution with Flag peptides, second immunoprecipitation with anti-MIIP; immunoblot
T1 sequence (chain, phosphoserine at 303 in EGF-stimulated cells): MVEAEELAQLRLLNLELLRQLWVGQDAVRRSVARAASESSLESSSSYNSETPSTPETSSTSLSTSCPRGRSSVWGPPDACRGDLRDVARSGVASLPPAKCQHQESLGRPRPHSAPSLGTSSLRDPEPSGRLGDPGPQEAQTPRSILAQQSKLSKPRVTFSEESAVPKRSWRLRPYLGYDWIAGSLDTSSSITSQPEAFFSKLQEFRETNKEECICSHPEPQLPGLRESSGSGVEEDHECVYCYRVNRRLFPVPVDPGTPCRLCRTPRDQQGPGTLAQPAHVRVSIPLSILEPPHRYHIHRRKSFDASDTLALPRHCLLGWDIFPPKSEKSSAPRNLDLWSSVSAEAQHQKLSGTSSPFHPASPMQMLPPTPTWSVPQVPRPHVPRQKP

Flag-MIIP S303A (human) = target: T2, Flag-MIIP S303A (human) (UniProt Q5JXC2); test: co-IP; cells expressing MIIP S303A, with or without EGF (Supplementary Fig. 4a; legend not shown, method taken from the paper's other experiments in cells)
T2 sequence: T1 sequence (chain, phosphoserine at 303 in EGF-stimulated cells) with S303A

[2] = target: T1, migration and invasion inhibitory protein (MIIP), endogenous (human (endogenous in HCT116, SW480)); test: co-IP; CaCo2 cells with EGF, trimer complex (Supplementary Fig. 4h; legend not shown)
[3] = target: T1, migration and invasion inhibitory protein (MIIP), endogenous (human (endogenous in HCT116, SW480)); test: co-IP; SW620 cells with EGF, HDAC6–MIIP–RelA complex, dependent on PKCε activation (Supplementary Fig. 6c; legend not shown)

Measured: binding

histone deacetylase 6 (HDAC6), endogenous (from UniProt Q9UBN7 1-1215) (enzyme)
binds: all assays above
